One molecule from patent US20140023611A1 (priority 2010, published 2014) can be followed below.

Amino acid sequences for entries named in this document (tags omitted).
UniProt Q9JJ09, whole entry: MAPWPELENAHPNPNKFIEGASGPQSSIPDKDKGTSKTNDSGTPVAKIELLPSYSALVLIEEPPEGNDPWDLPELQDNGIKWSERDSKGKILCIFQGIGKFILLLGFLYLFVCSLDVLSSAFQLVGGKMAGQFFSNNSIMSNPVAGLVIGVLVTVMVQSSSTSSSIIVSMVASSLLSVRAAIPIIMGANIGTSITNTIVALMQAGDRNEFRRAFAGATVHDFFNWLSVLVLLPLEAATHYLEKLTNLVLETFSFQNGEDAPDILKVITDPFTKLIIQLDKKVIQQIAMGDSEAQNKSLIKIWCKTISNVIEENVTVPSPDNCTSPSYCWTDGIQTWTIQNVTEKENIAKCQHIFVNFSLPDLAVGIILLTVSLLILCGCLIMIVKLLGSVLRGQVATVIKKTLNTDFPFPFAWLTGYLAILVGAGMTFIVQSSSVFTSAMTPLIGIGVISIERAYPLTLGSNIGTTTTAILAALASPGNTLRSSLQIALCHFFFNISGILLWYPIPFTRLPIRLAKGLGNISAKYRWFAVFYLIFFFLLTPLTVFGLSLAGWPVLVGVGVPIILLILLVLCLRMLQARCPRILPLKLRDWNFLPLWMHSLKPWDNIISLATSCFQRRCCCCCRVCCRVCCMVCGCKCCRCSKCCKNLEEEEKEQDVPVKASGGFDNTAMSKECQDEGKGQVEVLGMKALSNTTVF

The assay has as its target rat NaP2b (SLC34A2) (Rattus norvegicus, UniProt Q9JJ09). Briefly: Inhibition of NaP2b-mediated Pi (33P) uptake in transfected HEK293 cells, rat NaP2b. As to conditions: 33P Pi uptake, 0.1 mM phosphate, value given as pIC50 range, tested form: TFA.

Structures were worked out from names or drawings and are uncertain.

With `O=C(O)CCSCc1cccc(C(=O)Nc2ccc(N3CCCCC3)cc2-c2cc(C(=O)N3CCCC3c3ccccc3)ccn2)c1` (stereo not shown), the “pIC50 range for rat Nap2b” value is 4.5-5.
